No constants are given. Whether binding was seen depends on the method and setting. For some assays here: In cells and extracts the contact can be indirect. Some entries that bind do so weakly or less than the wild type.
Legend:
[1] = molecular target: recombinant HMGB1 with a calmodulin-binding protein (CBP) tag (UniProt P09429); test: pull-down; CBP-tagged HMGB1 or 10 µg CBP peptide incubated overnight at 4°C with HEK-Blue hTLR4 cell lysates, captured on calmodulin beads, washed with PBS 0.1% Triton X-100, immunoblot with anti-TLR4; only the target purified
[2] = molecular target: recombinant disulfide HMGB1 protein (UniProt P09429); test: SPR; HMGB1 coated on the chip; hTLR4 as analyte (100 nM) plus increasing amounts of PSMs; both purified

Amino acid sequences for entries named in this document (tags omitted). A change or cut given only in a name is not applied to a line headed by its entry.
UniProt P09429: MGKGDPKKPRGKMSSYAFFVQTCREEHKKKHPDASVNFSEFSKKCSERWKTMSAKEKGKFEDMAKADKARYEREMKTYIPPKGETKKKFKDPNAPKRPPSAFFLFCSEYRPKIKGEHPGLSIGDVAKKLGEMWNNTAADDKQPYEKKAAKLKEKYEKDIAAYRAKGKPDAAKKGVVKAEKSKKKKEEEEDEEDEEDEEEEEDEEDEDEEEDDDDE
UniProt O00206: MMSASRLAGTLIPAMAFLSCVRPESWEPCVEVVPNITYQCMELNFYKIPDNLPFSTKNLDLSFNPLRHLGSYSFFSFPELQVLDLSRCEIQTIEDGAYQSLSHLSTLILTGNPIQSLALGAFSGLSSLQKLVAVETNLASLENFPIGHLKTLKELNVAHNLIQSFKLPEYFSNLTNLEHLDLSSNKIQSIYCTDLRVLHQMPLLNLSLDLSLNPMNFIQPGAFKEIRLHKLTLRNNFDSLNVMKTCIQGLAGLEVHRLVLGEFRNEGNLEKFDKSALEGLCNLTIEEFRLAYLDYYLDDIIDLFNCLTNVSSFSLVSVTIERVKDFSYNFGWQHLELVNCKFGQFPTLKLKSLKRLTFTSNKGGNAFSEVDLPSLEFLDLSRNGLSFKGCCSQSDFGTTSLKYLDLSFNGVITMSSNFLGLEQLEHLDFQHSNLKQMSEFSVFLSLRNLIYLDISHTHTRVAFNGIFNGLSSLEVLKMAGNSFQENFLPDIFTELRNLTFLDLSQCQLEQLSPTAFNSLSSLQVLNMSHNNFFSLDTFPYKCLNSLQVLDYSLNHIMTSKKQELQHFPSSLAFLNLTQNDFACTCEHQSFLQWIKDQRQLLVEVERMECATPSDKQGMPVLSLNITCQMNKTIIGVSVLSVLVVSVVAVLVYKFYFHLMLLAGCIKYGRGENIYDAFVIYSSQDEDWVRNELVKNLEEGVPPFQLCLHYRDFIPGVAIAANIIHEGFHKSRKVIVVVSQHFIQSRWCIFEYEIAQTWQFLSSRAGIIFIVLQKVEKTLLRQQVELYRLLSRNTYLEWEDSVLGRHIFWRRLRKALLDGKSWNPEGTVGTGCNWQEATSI

In the case of “human TLR4 in HEK-Blue hTLR4 cell lysates (from UniProt O00206 24-839) (receptor)”, the binding [1] is reported as “binds”.

In the case of “recombinant human TLR4 protein (ectodomain, Glu24-Lys631) (from UniProt O00206 24-631) (domain or fragment)”, the binding [2] is reported as “binds”.
